The list shows only some results of the screen, not a fair sample: it is rich in T/C values a quarter to a half above the control, in often repeated tests (any T/C) and in doses without a T/C. Further doses and runs are listed elsewhere. T/C: endpoint of the treated group in % of that of the vehicle group. Some doses have a count of surviving animals in place of a T/C: the source files T/C as zero there, which appears to mark a toxic dose or a test without result, not a measured value. Some doses without a T/C left all or most animals alive at the check, yet need not have been tolerated: the source hardly ever lists a survival T/C far under the control, and the zero likely stands for such cases as well. Survivors were counted at the toxicity check, usually on the fifth day, unless a day is given; later deaths do not show. Schedules are NCI's codes, taken here to give the interval after Q, in days (D) or hours (H), and the number of doses after X. For survival time, this PubChem deposit counts one and a half times the control or more as active, and values a quarter to a half above the control carry no call in these data; other NCI protocols may use other cut-offs.
Tested on: CD2F1 mice, L1210 leukemia ip, survival T/C
Assay: NCI In Vivo Anticancer Drug Screen. Data for tumor model L1210 Leukemia (intraperitoneal) in CD2F1 (CDF1) mice
Conditions: higher T/C = longer survival
Method in brief: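 Implant tumor; dose compound or vehicle; measure endpoint in both groups; report treated divided by control.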

[1] = T/C endpoint: mean survival time, dose: 200.0 mg/kg/injection, schedule: Q01DX001 (ip), vehicle: saline with Tween-80
[2] = T/C endpoint: mean survival time, dose: 400.0 mg/kg/injection, schedule: Q01DX001 (ip), vehicle: saline with Tween-80
[3] = T/C endpoint: mean survival time, dose: 100.0 mg/kg/injection, schedule: Q01DX009 (ip), vehicle: saline with Tween-80
[4] = T/C endpoint: mean survival time, dose: 50.0 mg/kg/injection, schedule: Q04DX003 (ip), vehicle: saline with Tween-80
[5] = T/C endpoint: mean survival time, dose: 100.0 mg/kg/injection, schedule: Q04DX003 (ip), vehicle: saline with Tween-80
[6] = T/C endpoint: mean survival time, dose: 200.0 mg/kg/injection, schedule: Q04DX003 (ip), vehicle: saline with Tween-80
[7] = T/C endpoint: mean survival time, dose: 400.0 mg/kg/injection, schedule: Q04DX003 (ip), vehicle: saline with Tween-80
[8] = T/C endpoint: mean survival time, dose: 200.0 mg/kg/injection, schedule: Q01DX009 (ip), vehicle: saline with Tween-80
[9] = T/C endpoint: median survival time, dose: 400.0 mg/kg/injection, schedule: Q04DX002 (ip), vehicle: saline with Tween-80
[10] = T/C endpoint: mean survival time, dose: 400.0 mg/kg/injection, schedule: Q04DX002 (ip), vehicle: saline with Tween-80

Question: How did the survivor count [1] turn out when `Oc1ccc(CCl)cc1O` was run?
Answer: 0 of 3

Question: And the survivor count [2]?
Answer: 0 of 3

Question: Which results are given for `C/C(=C\Cl)CNC(C)C`?
Answer: survivor count [3]: 3 of 6; survivor count (T/C endpoint: mean survival time, dose: 200.0 mg/kg/injection, schedule: Q01DX001 (ip), vehicle: acetone): 0 of 6; survivor count (T/C endpoint: mean survival time, dose: 400.0 mg/kg/injection, schedule: Q01DX001 (ip), vehicle: acetone): 0 of 6

Question: With `COc1cccc2c1C(=O)c1c(O)c3c(c(O)c1C2=O)C[C@@](O)(C(=O)COC(=O)Cc1cccc2ccccc12)C[C@@H]3OC1CC(N)C(O)C(C)O1` (stereo partly drawn) as the compound, how does the T/C (T/C endpoint: mean survival time, dose: 1.0 mg/kg/injection, schedule: Q01DX009 (ip), vehicle: saline with Tween-80) read?
Answer: 127 % of control

Question: What about the T/C (T/C endpoint: mean survival time, dose: 1.25 mg/kg/injection, schedule: Q04DX003 (ip), vehicle: other) of the same compound?
Answer: 125 % of control

Question: And the T/C (T/C endpoint: mean survival time, dose: 2.0 mg/kg/injection, schedule: Q01DX001 (ip), vehicle: other)?
Answer: 129 % of control

Question: And the T/C (T/C endpoint: mean survival time, dose: 2.0 mg/kg/injection, schedule: Q01DX009 (ip), vehicle: saline with Tween-80)?
Answer: 132 % of control

Question: And the T/C (T/C endpoint: mean survival time, dose: 2.5 mg/kg/injection, schedule: Q04DX003 (ip), vehicle: other)?
Answer: 129 % of control

Question: What about the T/C (T/C endpoint: mean survival time, dose: 2.5 mg/kg/injection, schedule: Q04DX003 (ip), vehicle: saline with Tween-80) of the same compound?
Answer: 128 % of control

Question: And the T/C (T/C endpoint: mean survival time, dose: 4.0 mg/kg/injection, schedule: Q01DX001 (ip), vehicle: other)?
Answer: 125 % of control

Question: What about the T/C (T/C endpoint: mean survival time, dose: 4.0 mg/kg/injection, schedule: Q01DX009 (ip), vehicle: saline with Tween-80) of the same compound?
Answer: 145 % of control

Question: What about the T/C (T/C endpoint: mean survival time, dose: 5.0 mg/kg/injection, schedule: Q01DX001 (ip), vehicle: saline with Tween-80) of the same compound?
Answer: 128 % of control

Question: And the T/C (T/C endpoint: mean survival time, dose: 5.0 mg/kg/injection, schedule: Q04DX003 (ip), vehicle: saline with Tween-80)?
Answer: 128 % of control

Question: What about the T/C (T/C endpoint: mean survival time, dose: 8.0 mg/kg/injection, schedule: Q01DX001 (ip), vehicle: other) of the same compound?
Answer: 134 % of control

Question: And the T/C (T/C endpoint: mean survival time, dose: 10.0 mg/kg/injection, schedule: Q01DX001 (ip), vehicle: saline with Tween-80)?
Answer: 130 % of control

Question: And the T/C (T/C endpoint: mean survival time, dose: 10.0 mg/kg/injection, schedule: Q04DX003 (ip), vehicle: other)?
Answer: 125 % of control

Question: And the T/C (T/C endpoint: mean survival time, dose: 16.0 mg/kg/injection, schedule: Q01DX001 (ip), vehicle: other)?
Answer: 141 % of control

Question: And the T/C (T/C endpoint: mean survival time, dose: 20.0 mg/kg/injection, schedule: Q01DX001 (ip), vehicle: saline with Tween-80)?
Answer: 132 % of control

Question: What about the survivor count (T/C endpoint: mean survival time, dose: 20.0 mg/kg/injection, schedule: Q04DX003 (ip), vehicle: other) of the same compound?
Answer: 4 of 6

Question: What about the T/C (T/C endpoint: mean survival time, dose: 20.0 mg/kg/injection, schedule: Q04DX003 (ip), vehicle: saline with Tween-80) of the same compound?
Answer: 137 % of control

Question: And the survivor count (T/C endpoint: mean survival time, dose: 40.0 mg/kg/injection, schedule: Q01DX001 (ip), vehicle: saline with Tween-80)?
Answer: 2 of 10

Question: And the survivor count (T/C endpoint: mean survival time, dose: 40.0 mg/kg/injection, schedule: Q04DX003 (ip), vehicle: other)?
Answer: 2 of 6

Question: What about the survivor count (T/C endpoint: mean survival time, dose: 40.0 mg/kg/injection, schedule: Q04DX003 (ip), vehicle: saline with Tween-80) of the same compound?
Answer: 9 of 10

Question: How did the survivor count [4] turn out when `O=C1C=CC(=O)N1c1ccc(Cl)cc1Cl` was run?
Answer: 0 of 3

Question: Which results are given for `CCCCCCCCCCCCCCCCCCNC(=O)C[N+](C)(C)Cc1ccccc1`?
Answer: survivor count (T/C endpoint: mean survival time, dose: 25.0 mg/kg/injection, schedule: Q04DX003 (ip), vehicle: saline with Tween-80): 6 of 6; survivor count [5]: 6 of 6; survivor count [6]: 3 of 6; survivor count [7]: 0 of 6

Question: Which survivor count [8] does the source give for `N=C(OC1CCCCC1)C(Cl)(Cl)Cl` here?
Answer: 3 of 3

Question: Which survivor count [9] does the source give for `N#CC(C(=O)O)C1CCCCC1=O` (stereo not drawn) here?
Answer: 0 of 3

Question: For `Oc1c(Cl)cc(Cl)cc1C=NCCSc1ccc(Cl)cc1`, which survivor count (T/C endpoint: median survival time, dose: 400.0 mg/kg/injection, schedule: Q01DX009 (ip), vehicle: Klucel (hydroxypropylcellulose) (HPC)) is on record?
Answer: 3 of 6

Question: For `CN1CCCC1CN1c2ccccc2Sc2ccccc21` (stereo not drawn), which survivor count (T/C endpoint: mean survival time, dose: 200.0 mg/kg/injection, schedule: Q04DX003 (ip), vehicle: saline) is on record?
Answer: 0 of 6

Question: What about the survivor count (T/C endpoint: mean survival time, dose: 400.0 mg/kg/injection, schedule: Q04DX003 (ip), vehicle: saline) of the same compound?
Answer: 0 of 6

Question: With `CC1CN1CCCNC(=O)C(=O)NCCCN1CC1C` (stereo not drawn) as the compound, how does the survivor count (T/C endpoint: mean survival time, dose: 200.0 mg/kg/injection, schedule: Q01DX001 (ip), vehicle: saline) read?
Answer: 1 of 6

Question: And the survivor count (T/C endpoint: mean survival time, dose: 400.0 mg/kg/injection, schedule: Q01DX001 (ip), vehicle: saline)?
Answer: 0 of 6

Question: For `COc1cc(OC)c(/C=C/c2cc3c4ccccc4ccc3[n+](C)c2)c(OC)c1`, which survivor count [1] is on record?
Answer: 1 of 3

Question: And the survivor count [2]?
Answer: 1 of 3

Question: How did the survivor count (T/C endpoint: mean survival time, dose: 100.0 mg/kg/injection, schedule: Q04DX003 (ip), vehicle: acetone) turn out when `COc1cc(CC#N)ccc1C` was run?
Answer: 0 of 6

Question: And the survivor count (T/C endpoint: mean survival time, dose: 200.0 mg/kg/injection, schedule: Q04DX003 (ip), vehicle: acetone)?
Answer: 1 of 6

Question: And the survivor count (T/C endpoint: mean survival time, dose: 400.0 mg/kg/injection, schedule: Q04DX003 (ip), vehicle: acetone)?
Answer: 0 of 6

Question: How did the survivor count (T/C endpoint: mean survival time, dose: 200.0 mg/kg/injection, schedule: Q04DX003 (ip), vehicle: distilled water + Tween-80) turn out when `[Cl][Pt+2][Cl].[NH-]c1ccccc1C(F)(F)F.[NH-]c1ccccc1C(F)(F)F` was run?
Answer: 2 of 6

Question: For `N#Cc1cn(C2OC(CO)C3OC32)c2ncnc(NC(=O)c3ccccc3)c12` (stereo not drawn), which survivor count (T/C endpoint: mean survival time, dose: 400.0 mg/kg/injection, schedule: Q01DX005 (ip), vehicle: distilled water + Tween-80) is on record?
Answer: 0 of 6

Question: Which results are given for `ClC1=C(Cl)C2(Cl)C=CC1(Cl)C2(Cl)Cl`?
Answer: survivor count [3]: 6 of 6; survivor count [6]: 2 of 6; survivor count [7]: 1 of 6

Question: For `NC(=O)OCCc1ccccc1`, which survivor count (T/C endpoint: mean survival time, dose: 400.0 mg/kg/injection, schedule: Q04DX003 (ip), vehicle: Klucel (hydroxypropylcellulose) (HPC)) is on record?
Answer: 3 of 3

Question: `COC1=CC23CCCN2CCc2cc4c(cc2C3C1O)OCO4` (stereo not drawn) was tested. Which survivor count (T/C endpoint: mean survival time, dose: 400.0 mg/kg/injection, schedule: Q01DX009 (ip), vehicle: water) did it give?
Answer: 0 of 6

Question: How did the survivor count (T/C endpoint: mean survival time, dose: 300.0 mg/kg/injection, schedule: Q01DX001 (ip), vehicle: other) turn out when `CCCCCCOc1ccc(N=Cc2ccc(N(C)C)cc2)cc1` was run?
Answer: 0 of 6

Question: For `Cn1cc(C(O)CN2CCCCC2)c2ccccc21` (stereo not drawn), which survivor count [6] is on record?
Answer: 0 of 3

Question: What about the survivor count [7] of the same compound?
Answer: 0 of 3

Question: For `Cc1ccc(S(=O)(=O)N=P(c2ccccc2)(c2ccccc2)c2ccccc2)cc1`, which survivor count [8] is on record?
Answer: 6 of 6

Question: With `O=C(Nc1ccc(Cl)c(Cl)c1)c1ccc(Cl)c(Cl)c1` as the compound, how does the survivor count (T/C endpoint: mean survival time, dose: 200.0 mg/kg/injection, schedule: Q04DX002 (ip), vehicle: saline with Tween-80) read?
Answer: 3 of 3

Question: What does the source list for `O=C(O)CCC(=O)c1ccc(Cl)cc1`?
Answer: survivor count (T/C endpoint: median survival time, dose: 50.0 mg/kg/injection, schedule: Q04DX002 (ip), vehicle: saline with Tween-80): 3 of 3; survivor count (T/C endpoint: median survival time, dose: 100.0 mg/kg/injection, schedule: Q04DX002 (ip), vehicle: saline with Tween-80): 3 of 3; survivor count [9]: 3 of 3

Question: For `CC(C)(CCC(=O)O)c1cccc(Cl)c1`, which survivor count [8] is on record?
Answer: 0 of 3

Question: What does the source list for `Cc1noc2nccnc12`?
Answer: survivor count [8]: 3 of 6; survivor count [6]: 5 of 6; survivor count [7]: 0 of 6

Question: For `C[N+](C)(C)C1(Cc2ccc(F)cc2)c2ccccc2-c2ccccc21`, which survivor count [5] is on record?
Answer: 0 of 6

Question: And the survivor count [6]?
Answer: 0 of 6

Question: What about the survivor count [7] of the same compound?
Answer: 0 of 6

Question: `COc1c(NC(=O)Nc2cccc(Cl)c2)cccc1[N+](=O)[O-]` was tested. Which survivor count [10] did it give?
Answer: 3 of 3

Question: `C1=CC2CC3(OCCO3)C2C1` (stereo not drawn) was tested. Which survivor count (T/C endpoint: mean survival time, dose: 400.0 mg/kg/injection, schedule: Q01DX009 (ip), vehicle: saline with Tween-80) did it give?
Answer: 6 of 6

Question: Which survivor count [10] does the source give for `CC(C)CC(CCl)Cc1nc2ccccc2[nH]1` (stereo not drawn) here?
Answer: 0 of 3

Question: Which survivor count [4] does the source give for `O=C1C(Cl)=C(NCC2CCC(CO)CC2)C(=O)c2ccccc21` (stereo not drawn) here?
Answer: 0 of 6

Question: And the survivor count [5]?
Answer: 0 of 6

Question: What does the source list for `Nc1ccc2nc3ccc(N)cc3[n+](-c3ccccc3)c2c1`?
Answer: survivor count (T/C endpoint: mean survival time, dose: 18.0 mg/kg/injection, schedule: Q01DX009 (ip), vehicle: saline): 3 of 6; survivor count (T/C endpoint: mean survival time, dose: 27.0 mg/kg/injection, schedule: Q01DX009 (ip), vehicle: saline): 1 of 6; survivor count (T/C endpoint: mean survival time, dose: 40.0 mg/kg/injection, schedule: Q01DX009 (ip), vehicle: saline): 0 of 6

Question: Which survivor count (T/C endpoint: mean survival time, dose: 300.0 mg/kg/injection, schedule: Q01DX001 (ip), vehicle: saline) does the source give for `CN(C)CC1CCCCCC(Br)C1O` (stereo not drawn) here?
Answer: 0 of 6
